Results deposited as PubChem BioAssay AID1053208 (Peter MacCallum Cancer Centre, 2014).

Test: 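Find knock-downs that sensitise mouse osteosarcoma cells to doxorubicin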 (primary screen)
Cells: mouse osteosarcoma cells, early-passage culture from an engineered mouse model of fibroblastic bone tumour
Reagent: siRNA pool against mouse genes, 40 nM
Timing: about 120 h (48 h before drug, then 72 h with drug)
Challenge: doxorubicin 100 nM for 72 h, roughly 30-40% inhibitory dose
Read-out: 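Viability read as ATP luminescence after 72 h of 100 nM doxorubicin or none, duplicate wells averaged, scaled to non-targeting siRNA, then expressed as robust z-scores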
Reading the numbers: viability z-score with doxorubicin: higher = more viable cells under doxorubicin; viability z-score without drug: higher = more viable cells with knock-down alone
Call rule: 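a pool counts as active when its viability z-score with doxorubicin is -2 or below and its z-score without drug lies between -2 and 2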
The whole screen tested about 17,000 reagents; shown is a part drawn at random. 788 of all reagents (4.7%) count as active. 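Calls rest on z-score classes alone; an extra cut-off of viability at most 70% of control was not applied to them.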 A number with no mark means an inactive call. Not all columns of the deposit are shown. Reagent sequences are not shown.

Emid1 (EMI domain containing 1) scored combined z-score class no change with or without drug; viability z-score with doxorubicin -0.9; viability z-score without drug -0.17. After knock-down of Prr14l (proline rich 14-like) the results were combined z-score class no change with or without drug; viability z-score with doxorubicin 1.8; viability z-score without drug 0. Depletion of Zfp599 (zinc finger protein 599) came out at: combined z-score class no change with or without drug; viability z-score with doxorubicin -0.79; viability z-score without drug -0.84. With knock-down of Prpf18 (pre-mRNA processing factor 18), the screen gave combined z-score class no change with or without drug; viability z-score with doxorubicin 0.9; viability z-score without drug 0.67. Raver2 (ribonucleoprotein, PTB-binding 2) showed combined z-score class no change with or without drug; viability z-score with doxorubicin -0.11; viability z-score without drug -0.17. After knock-down of Plekhb1 (pleckstrin homology domain containing B1) the results were combined z-score class low cell count with doxorubicin only (active); viability z-score with doxorubicin -2.02; viability z-score without drug -0.17.

For Ffar1 (free fatty acid receptor 1), the values are combined z-score class no change with or without drug; viability z-score with doxorubicin -0.45; viability z-score without drug 0.51. Cers4 (ceramide synthase 4) scored combined z-score class no change with or without drug; viability z-score with doxorubicin -1.46; viability z-score without drug -0.17. For Taf1 (TATA-box binding protein associated factor 1), the values are combined z-score class no change with or without drug; viability z-score with doxorubicin -0.45; viability z-score without drug -1.85. Against Copb2 (COPI coat complex subunit beta 2) the deposit lists combined z-score class low cell count with and without drug; viability z-score with doxorubicin -6.97; viability z-score without drug -7.08. With knock-down of Pcbp1 (poly(rC) binding protein 1) the results were combined z-score class no change with or without drug; viability z-score with doxorubicin -0.9; viability z-score without drug -1.18. With knock-down of Zfp92 (zinc finger protein 92) the results were combined z-score class no change with or without drug; viability z-score with doxorubicin 0.9; viability z-score without drug 0.67.

Knock-down of Plppr1 (phospholipid phosphatase related 1) resulted in: combined z-score class no change with or without drug; viability z-score with doxorubicin -0.45; viability z-score without drug 0.51. After knock-down of Afg2a (AFG2 AAA ATPase homolog A), the record shows combined z-score class no change with or without drug; viability z-score with doxorubicin -1.12; viability z-score without drug -0.84. Against Mapre2 (microtubule-associated protein, RP/EB family, member 2), the values are combined z-score class no change with or without drug; viability z-score with doxorubicin -0.45; viability z-score without drug -0.67. Immp1l scored combined z-score class no change with or without drug; viability z-score with doxorubicin 0.22; viability z-score without drug 0.84. Against 6030448M23RIK, the values are combined z-score class no change with or without drug; viability z-score with doxorubicin 0.45; viability z-score without drug -0.51. Dtd1 (D-tyrosyl-tRNA deacylase 1) scored combined z-score class no change with or without drug; viability z-score with doxorubicin -1.57; viability z-score without drug -0.51.

After knock-down of Angptl2 (angiopoietin-like 2) the results were combined z-score class low cell count without drug only; viability z-score with doxorubicin -1.8; viability z-score without drug -2.19. After knock-down of Six4 (sine oculis-related homeobox 4), the screen gave combined z-score class no change with or without drug; viability z-score with doxorubicin 0.22; viability z-score without drug -0.17. After knock-down of Cfh (complement component factor h), the screen gave combined z-score class no change with or without drug; viability z-score with doxorubicin 0.34; viability z-score without drug 1.01. For Krt8 (keratin 8), the entry reads combined z-score class no change with or without drug; viability z-score with doxorubicin -0.22; viability z-score without drug 0.34. For Mib1 (MIB E3 ubiquitin protein ligase 1), the values are combined z-score class no change with or without drug; viability z-score with doxorubicin 0; viability z-score without drug 0.51. Against Itln1 (intelectin 1 (galactofuranose binding)), the values are combined z-score class no change with or without drug; viability z-score with doxorubicin -0.9; viability z-score without drug -0.84.

Zfand5 (zinc finger, AN1-type domain 5) scored combined z-score class low cell count with doxorubicin only (active); viability z-score with doxorubicin -2.47; viability z-score without drug -1.01. After knock-down of Acvr2b (activin receptor IIB), the record shows combined z-score class no change with or without drug; viability z-score with doxorubicin -0.11; viability z-score without drug 0.84. Depletion of Cyp4f13 (cytochrome P450, family 4, subfamily f, polypeptide 13) resulted in: combined z-score class no change with or without drug; viability z-score with doxorubicin 0.34; viability z-score without drug 0.67. For Ocln (occludin), the entry reads combined z-score class no change with or without drug; viability z-score with doxorubicin 0.67; viability z-score without drug -0.17.
